Values from PubChem BioAssay AID1259254 (NCATS, 2017).
Assay: 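Finding genes that stop cells copying their DNA twice in one cycle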 (primary screen). Cell system: human HCT116 colorectal cancer cells. Reagent: single siRNA against human genes. Timing: 3 days. Detection: 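Imaged Hoechst DNA stain sorts each cell into a cycle phase by DNA amount; per plate, G2 fraction set to 0% for non-targeting and 100% for GMNN siRNA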. Reading the numbers: G2 robust z-score and G2 cells, % of GMNN control: higher = more G2 cells, more excess DNA replication; raw share of cells in G2: higher = larger share of cells with G2 DNA content. Active means: 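Active siRNAs have a G2 robust z of 5 or more median absolute deviations over the median, which in these data means about 38% or higher of GMNN control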.
The deposit covers about 59,000 reagents; below is a part drawn at random. About 1,550 of all reagents (2.6%) were called active. 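G2 share is only a proxy for re-replication; each gene was hit by three separate siRNAs, and active genes were retested.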 The raw values are shown without normalisation. Reagents against one gene are numbered here. Not given: the amount of reagent.

| gene | reagent | G2 robust z-score | G2 cells, % of GMNN control | raw share of cells in G2 (%) | activity call |
| --- | --- | --- | --- | --- | --- |
| GAB4 | 1 | -0.652 | -1.62 | 1.99 | inactive |
| GAB4 | 2 | 1.08 | 10.6 | 8.17 | inactive |
| GAB4 | 3 | 0.0719 | 3.47 | 4.2 | inactive |
| OPCML | 1 | 1.41 | 12.9 | 7.59 | inactive |
| OPCML | 2 | 0.336 | 5.33 | 6.92 | inactive |
| OPCML | 3 | 0.719 | 8.03 | 8.24 | inactive |
| OR2G3 | 1 | -0.698 | -1.94 | 3.64 | inactive |
| OR2G3 | 2 | 0.756 | 8.29 | 7.93 | inactive |
| OR2G3 | 3 | -0.41 | 0.0846 | 2.4 | inactive |
| JARID2 | 1 | -0.63 | -1.46 | 2.88 | inactive |
| JARID2 | 2 | -0.0601 | 2.54 | 6.04 | inactive |
| JARID2 | 3 | 0.429 | 5.99 | 5.28 | inactive |
| TPM2 | 1 | -0.22 | 1.42 | 4.79 | inactive |
| TPM2 | 2 | -0.685 | -1.85 | 3.87 | inactive |
| TPM2 | 3 | 0.355 | 5.47 | 7.91 | inactive |
| FCRL2 | 1 | 0.5 | 6.49 | 8.33 | inactive |
| FCRL2 | 2 | -0.253 | 1.19 | 4.77 | inactive |
| FCRL2 | 3 | 0.98 | 9.86 | 7.81 | inactive |
| IQSEC2 | 1 | 0.693 | 7.84 | 6.11 | inactive |
| IQSEC2 | 2 | 3.42 | 27 | 15.6 | inactive |
| IQSEC2 | 3 | 0.51 | 6.56 | 6.84 | inactive |
| LTN1 | 1 | 0.354 | 5.46 | 8.64 | inactive |
| LTN1 | 2 | -0.354 | 0.474 | 4.34 | inactive |
| LTN1 | 3 | -0.392 | 0.206 | 4.06 | inactive |
| EFHD1 | 1 | 0.381 | 5.65 | 4.79 | inactive |
| EFHD1 | 2 | -1.2 | -5.45 | 3.44 | inactive |
| EFHD1 | 3 | 1.94 | 16.6 | 8.84 | inactive |
| ZNF20 | 1 | 0.239 | 4.65 | 5.07 | inactive |
| ZNF20 | 2 | -0.461 | -0.279 | 5.86 | inactive |
| ZNF20 | 3 | 0.466 | 6.25 | 5.96 | inactive |
| RNF227 | 1 | 1.02 | 10.2 | 7.35 | inactive |
| RNF227 | 2 | 0.828 | 8.8 | 6.45 | inactive |
| RNF227 | 3 | 0.332 | 5.3 | 4.88 | inactive |
| OPLAH | 1 | 0.819 | 8.73 | 7.09 | inactive |
| OPLAH | 2 | -0.756 | -2.35 | 3.22 | inactive |
| OPLAH | 3 | 0.874 | 9.12 | 10.3 | inactive |
| DUSP2 | 1 | -1.31 | -6.26 | 2.76 | inactive |
| DUSP2 | 2 | 0.395 | 5.75 | 6.03 | inactive |
| DUSP2 | 3 | -0.636 | -1.51 | 3.04 | inactive |
| SAMD7 | 1 | -0.658 | -1.66 | 4.31 | inactive |
| SAMD7 | 2 | 0.294 | 5.03 | 6.12 | inactive |
| SAMD7 | 3 | -0.0822 | 2.39 | 6.94 | inactive |
| EPB41 | 1 | 0.0997 | 3.67 | 7.02 | inactive |
| EPB41 | 2 | -0.709 | -2.02 | 3.35 | inactive |
| EPB41 | 3 | -0.844 | -2.97 | 2.36 | inactive |
| MZT1 | 1 | 0.62 | 7.33 | 5.61 | inactive |
| MZT1 | 2 | -0.0553 | 2.58 | 4.62 | inactive |
| MZT1 | 3 | -0.37 | 0.365 | 3.55 | inactive |

Entries listed so far whose gene name starts with D or d:
| gene | reagent | G2 robust z-score | G2 cells, % of GMNN control | raw share of cells in G2 (%) | activity call |
| --- | --- | --- | --- | --- | --- |
| DUSP2 | 1 | -1.31 | -6.26 | 2.76 | inactive |
| DUSP2 | 2 | 0.395 | 5.75 | 6.03 | inactive |
| DUSP2 | 3 | -0.636 | -1.51 | 3.04 | inactive |
